In the supplement of paper PMC10849652:
The other results are listed elsewhere or left out.

Protein sequences, listed by entry. Tags and fused reporters are not part of them. Lines headed by an entry give the natural chain unless they say otherwise; changes in a name come on top.
UniProt Q6NTE8: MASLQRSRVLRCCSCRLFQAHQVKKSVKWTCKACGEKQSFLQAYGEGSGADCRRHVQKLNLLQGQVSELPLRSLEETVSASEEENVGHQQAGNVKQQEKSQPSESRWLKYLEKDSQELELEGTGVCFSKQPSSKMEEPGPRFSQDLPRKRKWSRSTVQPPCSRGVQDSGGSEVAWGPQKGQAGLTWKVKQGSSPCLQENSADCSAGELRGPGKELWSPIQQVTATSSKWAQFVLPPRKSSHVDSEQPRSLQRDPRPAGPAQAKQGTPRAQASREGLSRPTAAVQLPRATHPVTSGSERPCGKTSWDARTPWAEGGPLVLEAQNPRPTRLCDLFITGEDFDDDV
UniProt Q86VX9: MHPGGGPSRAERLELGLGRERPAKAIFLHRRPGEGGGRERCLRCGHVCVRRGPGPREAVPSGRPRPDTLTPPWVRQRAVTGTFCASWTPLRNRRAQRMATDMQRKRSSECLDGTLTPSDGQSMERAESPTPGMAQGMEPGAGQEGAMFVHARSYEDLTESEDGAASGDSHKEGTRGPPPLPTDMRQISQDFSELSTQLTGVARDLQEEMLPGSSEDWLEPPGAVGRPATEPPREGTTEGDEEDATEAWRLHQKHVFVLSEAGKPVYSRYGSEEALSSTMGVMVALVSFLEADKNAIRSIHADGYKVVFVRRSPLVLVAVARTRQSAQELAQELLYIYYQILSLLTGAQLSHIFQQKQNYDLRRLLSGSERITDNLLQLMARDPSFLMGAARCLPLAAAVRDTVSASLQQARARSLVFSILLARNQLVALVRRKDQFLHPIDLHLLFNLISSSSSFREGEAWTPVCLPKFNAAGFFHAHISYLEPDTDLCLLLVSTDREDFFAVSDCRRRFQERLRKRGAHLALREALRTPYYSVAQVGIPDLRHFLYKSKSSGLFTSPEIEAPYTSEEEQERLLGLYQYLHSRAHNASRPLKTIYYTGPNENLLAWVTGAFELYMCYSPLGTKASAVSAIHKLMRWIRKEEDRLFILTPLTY
UniProt Q7L4E1: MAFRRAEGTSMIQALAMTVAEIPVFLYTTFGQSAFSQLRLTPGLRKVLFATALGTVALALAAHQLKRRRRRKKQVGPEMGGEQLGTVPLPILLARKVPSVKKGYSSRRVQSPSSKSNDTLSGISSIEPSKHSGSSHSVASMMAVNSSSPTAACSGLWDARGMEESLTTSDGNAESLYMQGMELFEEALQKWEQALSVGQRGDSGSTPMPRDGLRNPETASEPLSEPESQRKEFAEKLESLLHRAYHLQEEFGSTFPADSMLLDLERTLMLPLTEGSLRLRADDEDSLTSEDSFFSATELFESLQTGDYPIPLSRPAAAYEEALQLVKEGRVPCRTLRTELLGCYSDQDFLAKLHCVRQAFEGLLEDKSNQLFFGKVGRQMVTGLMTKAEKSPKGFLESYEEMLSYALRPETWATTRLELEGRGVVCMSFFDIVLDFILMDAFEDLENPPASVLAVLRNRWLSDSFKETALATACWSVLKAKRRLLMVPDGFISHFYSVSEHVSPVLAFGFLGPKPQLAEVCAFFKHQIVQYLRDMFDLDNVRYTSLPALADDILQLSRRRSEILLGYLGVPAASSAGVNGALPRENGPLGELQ
UniProt Q13064: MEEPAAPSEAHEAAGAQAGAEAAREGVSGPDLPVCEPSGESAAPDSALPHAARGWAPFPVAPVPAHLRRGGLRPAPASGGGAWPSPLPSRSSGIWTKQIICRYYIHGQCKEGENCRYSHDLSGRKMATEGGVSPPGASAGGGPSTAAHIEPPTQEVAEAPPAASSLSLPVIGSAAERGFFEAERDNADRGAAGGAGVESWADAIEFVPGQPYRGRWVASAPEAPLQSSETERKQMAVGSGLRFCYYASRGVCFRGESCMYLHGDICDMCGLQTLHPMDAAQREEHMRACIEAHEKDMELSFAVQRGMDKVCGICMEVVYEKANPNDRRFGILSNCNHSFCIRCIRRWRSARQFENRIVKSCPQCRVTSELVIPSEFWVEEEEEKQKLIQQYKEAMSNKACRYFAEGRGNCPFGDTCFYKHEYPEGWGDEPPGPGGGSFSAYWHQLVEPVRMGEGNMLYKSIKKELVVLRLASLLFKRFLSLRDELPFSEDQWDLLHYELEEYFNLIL
UniProt Q8TDZ2: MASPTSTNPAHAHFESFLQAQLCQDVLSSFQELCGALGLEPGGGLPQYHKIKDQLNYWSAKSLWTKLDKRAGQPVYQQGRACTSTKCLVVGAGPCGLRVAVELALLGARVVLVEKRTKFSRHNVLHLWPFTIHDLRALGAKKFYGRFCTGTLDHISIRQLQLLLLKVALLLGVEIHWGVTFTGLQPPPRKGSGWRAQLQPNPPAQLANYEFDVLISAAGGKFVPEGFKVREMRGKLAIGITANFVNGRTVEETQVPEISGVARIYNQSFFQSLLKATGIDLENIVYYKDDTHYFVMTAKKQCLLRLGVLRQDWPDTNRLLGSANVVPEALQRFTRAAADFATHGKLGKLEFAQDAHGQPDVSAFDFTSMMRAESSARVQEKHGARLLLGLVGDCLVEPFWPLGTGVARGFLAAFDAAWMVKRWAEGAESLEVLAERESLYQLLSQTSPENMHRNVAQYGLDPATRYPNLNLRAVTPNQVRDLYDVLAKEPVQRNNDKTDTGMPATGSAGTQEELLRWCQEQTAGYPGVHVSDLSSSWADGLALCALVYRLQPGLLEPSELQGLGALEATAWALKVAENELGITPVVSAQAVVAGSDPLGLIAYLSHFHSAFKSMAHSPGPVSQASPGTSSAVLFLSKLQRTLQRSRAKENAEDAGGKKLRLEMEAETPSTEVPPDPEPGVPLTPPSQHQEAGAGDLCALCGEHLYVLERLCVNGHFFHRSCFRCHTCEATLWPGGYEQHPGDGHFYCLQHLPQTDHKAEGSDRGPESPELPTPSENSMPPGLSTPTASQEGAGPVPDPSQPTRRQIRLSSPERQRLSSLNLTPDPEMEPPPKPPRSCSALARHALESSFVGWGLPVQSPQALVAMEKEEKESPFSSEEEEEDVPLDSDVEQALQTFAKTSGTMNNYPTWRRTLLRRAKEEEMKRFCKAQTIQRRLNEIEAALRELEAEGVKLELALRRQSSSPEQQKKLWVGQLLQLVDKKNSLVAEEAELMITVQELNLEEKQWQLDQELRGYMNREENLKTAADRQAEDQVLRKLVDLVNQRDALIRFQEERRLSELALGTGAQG
UniProt Q29983, whole entry, looked up: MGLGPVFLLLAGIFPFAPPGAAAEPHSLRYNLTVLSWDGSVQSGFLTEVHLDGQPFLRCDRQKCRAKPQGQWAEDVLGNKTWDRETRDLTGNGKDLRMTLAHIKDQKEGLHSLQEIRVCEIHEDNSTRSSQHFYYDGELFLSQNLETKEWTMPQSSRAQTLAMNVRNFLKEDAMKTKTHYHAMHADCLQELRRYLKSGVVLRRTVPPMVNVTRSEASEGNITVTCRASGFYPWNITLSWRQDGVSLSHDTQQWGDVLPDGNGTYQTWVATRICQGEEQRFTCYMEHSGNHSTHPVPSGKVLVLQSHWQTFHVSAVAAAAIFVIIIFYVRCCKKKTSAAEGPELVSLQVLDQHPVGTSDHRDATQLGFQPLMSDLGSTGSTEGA
UniProt P55197: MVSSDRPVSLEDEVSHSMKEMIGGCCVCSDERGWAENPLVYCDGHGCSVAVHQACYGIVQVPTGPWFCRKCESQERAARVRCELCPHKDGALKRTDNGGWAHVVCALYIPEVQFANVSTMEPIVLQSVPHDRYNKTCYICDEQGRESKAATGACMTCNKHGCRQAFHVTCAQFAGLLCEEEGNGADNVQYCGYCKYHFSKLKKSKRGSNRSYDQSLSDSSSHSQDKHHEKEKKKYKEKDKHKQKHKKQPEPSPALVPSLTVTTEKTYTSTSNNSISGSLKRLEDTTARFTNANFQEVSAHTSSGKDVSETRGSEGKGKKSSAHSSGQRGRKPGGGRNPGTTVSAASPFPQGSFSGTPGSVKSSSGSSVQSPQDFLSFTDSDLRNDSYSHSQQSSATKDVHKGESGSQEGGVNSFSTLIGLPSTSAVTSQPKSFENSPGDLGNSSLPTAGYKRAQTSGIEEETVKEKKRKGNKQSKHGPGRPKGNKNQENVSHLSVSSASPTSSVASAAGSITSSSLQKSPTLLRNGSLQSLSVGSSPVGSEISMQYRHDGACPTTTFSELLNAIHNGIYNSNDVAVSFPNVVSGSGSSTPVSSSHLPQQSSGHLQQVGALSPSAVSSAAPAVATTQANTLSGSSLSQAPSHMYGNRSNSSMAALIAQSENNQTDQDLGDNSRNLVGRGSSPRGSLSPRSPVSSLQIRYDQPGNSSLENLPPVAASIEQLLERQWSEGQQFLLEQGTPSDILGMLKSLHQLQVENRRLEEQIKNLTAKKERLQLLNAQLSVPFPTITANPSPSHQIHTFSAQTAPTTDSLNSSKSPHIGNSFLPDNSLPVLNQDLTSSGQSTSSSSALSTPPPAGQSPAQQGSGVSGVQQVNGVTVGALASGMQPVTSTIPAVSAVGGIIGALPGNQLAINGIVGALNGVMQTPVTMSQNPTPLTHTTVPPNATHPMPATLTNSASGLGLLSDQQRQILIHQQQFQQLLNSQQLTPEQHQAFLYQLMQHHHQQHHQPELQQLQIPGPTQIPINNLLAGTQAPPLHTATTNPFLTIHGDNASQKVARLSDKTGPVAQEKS
UniProt Q5TGZ0: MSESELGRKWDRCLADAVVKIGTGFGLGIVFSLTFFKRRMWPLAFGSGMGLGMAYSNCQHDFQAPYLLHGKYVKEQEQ
UniProt P51511: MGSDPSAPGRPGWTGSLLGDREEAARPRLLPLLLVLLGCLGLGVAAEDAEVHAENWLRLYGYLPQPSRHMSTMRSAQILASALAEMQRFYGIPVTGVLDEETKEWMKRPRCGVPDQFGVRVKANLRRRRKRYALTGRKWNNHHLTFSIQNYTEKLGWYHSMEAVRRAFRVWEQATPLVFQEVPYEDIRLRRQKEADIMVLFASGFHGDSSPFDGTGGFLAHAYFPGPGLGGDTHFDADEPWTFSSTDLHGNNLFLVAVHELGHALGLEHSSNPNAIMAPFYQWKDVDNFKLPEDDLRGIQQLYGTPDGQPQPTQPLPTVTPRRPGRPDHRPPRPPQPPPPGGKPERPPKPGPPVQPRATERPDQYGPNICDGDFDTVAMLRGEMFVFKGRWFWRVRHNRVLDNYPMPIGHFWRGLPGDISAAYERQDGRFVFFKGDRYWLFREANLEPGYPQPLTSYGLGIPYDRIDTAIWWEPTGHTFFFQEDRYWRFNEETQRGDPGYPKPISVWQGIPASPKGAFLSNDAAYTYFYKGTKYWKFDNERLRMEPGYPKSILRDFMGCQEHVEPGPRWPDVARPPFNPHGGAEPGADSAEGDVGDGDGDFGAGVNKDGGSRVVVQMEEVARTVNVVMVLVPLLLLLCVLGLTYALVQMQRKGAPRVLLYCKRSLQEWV
UniProt Q96BX8: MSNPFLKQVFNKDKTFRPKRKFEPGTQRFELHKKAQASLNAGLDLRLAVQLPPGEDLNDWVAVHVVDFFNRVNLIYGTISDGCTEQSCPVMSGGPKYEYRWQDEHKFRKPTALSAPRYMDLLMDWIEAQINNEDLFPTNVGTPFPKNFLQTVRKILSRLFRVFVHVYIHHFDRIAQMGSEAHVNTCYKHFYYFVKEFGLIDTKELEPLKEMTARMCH
UniProt O75030: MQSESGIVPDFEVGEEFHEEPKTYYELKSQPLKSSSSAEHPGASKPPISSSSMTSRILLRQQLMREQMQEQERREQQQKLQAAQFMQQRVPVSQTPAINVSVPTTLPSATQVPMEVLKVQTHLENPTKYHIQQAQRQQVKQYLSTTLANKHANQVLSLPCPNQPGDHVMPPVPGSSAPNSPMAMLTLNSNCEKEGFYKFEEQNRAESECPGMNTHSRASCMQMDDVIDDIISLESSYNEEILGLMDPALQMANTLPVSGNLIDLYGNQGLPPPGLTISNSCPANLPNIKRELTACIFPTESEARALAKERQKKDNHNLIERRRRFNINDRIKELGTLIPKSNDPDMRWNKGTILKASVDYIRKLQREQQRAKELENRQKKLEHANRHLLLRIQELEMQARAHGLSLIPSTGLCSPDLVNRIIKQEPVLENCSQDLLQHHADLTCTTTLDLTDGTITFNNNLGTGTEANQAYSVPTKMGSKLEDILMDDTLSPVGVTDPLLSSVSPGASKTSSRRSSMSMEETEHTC
UniProt Q9UHC7: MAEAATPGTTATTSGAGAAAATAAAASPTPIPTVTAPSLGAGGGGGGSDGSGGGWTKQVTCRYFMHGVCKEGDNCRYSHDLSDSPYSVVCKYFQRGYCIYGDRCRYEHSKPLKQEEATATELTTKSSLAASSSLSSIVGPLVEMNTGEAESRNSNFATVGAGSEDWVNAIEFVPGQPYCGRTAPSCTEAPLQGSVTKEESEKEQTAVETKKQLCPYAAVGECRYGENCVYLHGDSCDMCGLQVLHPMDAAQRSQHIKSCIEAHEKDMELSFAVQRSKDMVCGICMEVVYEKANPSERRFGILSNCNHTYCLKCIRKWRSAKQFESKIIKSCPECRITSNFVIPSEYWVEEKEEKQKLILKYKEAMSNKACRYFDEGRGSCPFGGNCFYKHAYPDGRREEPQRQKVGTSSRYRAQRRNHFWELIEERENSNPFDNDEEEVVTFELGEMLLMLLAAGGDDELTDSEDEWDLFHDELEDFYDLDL

Experiments:
Assay in all cases: log2 fold change, soluble protein after heating vs DMSO (PISA); higher = thermal stabilisation; K562 cells, 10 uM, 30 min; active = over 0.2 and 3.5 SD of the protein, either way, in both replicates (recomputed)
[1] = compound: CS(=O)(=O)c1ccc(-c2cnc(N)c(C(=O)Nc3ccccc3)n2)cc1
Summary of the method: (§1)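 Quantification of soluble protein used TMTpro 16plex LC-MS/MS, with channel sums equalised. Samples were the supernatant after 21,000xg for 90 min of pooled aliquots from K562 cells (2×10^6 cells/mL) treated with 10 μM compound for 30 min, heated for 3 min over 48°C-58°C, and extracted in PBS with 0.5% NP-40 at 4°C. Values, from duplicates, describe thermal stability against control samples on a log2 fold-change scale.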

crizotinib = compound: C[C@@H](Oc1cc(-c2cnn(C3CCNCC3)c2)cnc1N)c1c(Cl)ccc(F)c1Cl [crizotinib]
Summary of the method: as §1

[2] = compound: C[C@@H]1COCCN1C2=NC(=NC(=C2)C3(CC3)S(=O)(=O)C)C4=C5C=CNC5=CC=C4
Summary of the method: as §1

gandotinib = compound: Cc1cc(Nc2cc(CN3CCOCC3)c3nc(C)c(Cc4ccc(Cl)cc4F)n3n2)n[nH]1 [gandotinib]
Summary of the method: as §1

tozasertib = compound: Cc1cc(Nc2cc(N3CCN(C)CC3)nc(Sc3ccc(NC(=O)C4CC4)cc3)n2)n[nH]1 [tozasertib]
Summary of the method: as §1

doramapimod = compound: Cc1ccc(-n2nc(C(C)(C)C)cc2NC(=O)Nc2ccc(OCCN3CCOCC3)c3ccccc23)cc1 [doramapimod]
Summary of the method: as §1

ispinesib = compound: Cc1ccc(C(=O)N(CCCN)[C@@H](c2nc3cc(Cl)ccc3c(=O)n2Cc2ccccc2)C(C)C)cc1 [ispinesib]
Summary of the method: as §1

[3] = compound: Cc1cccc(CC(=O)N2CCc3c2ccc(-c2cn(C)c4ncnc(N)c24)c3F)n1
Summary of the method: as §1

nilotinib = compound: Cc1cn(-c2cc(NC(=O)c3ccc(C)c(Nc4nccc(-c5cccnc5)n4)c3)cc(C(F)(F)F)c2)cn1 [nilotinib]
Summary of the method: as §1

[4] = compound: Cc1nc(Nc2n[nH]c3c2CN(C(=O)N[C@H](CN(C)C)c2ccccc2)C3(C)C)c2sccc2n1
Summary of the method: as §1

[5] = compound: Cc1ncc(-c2ccnc(Nc3ccc(S(C)(=O)=O)cc3)n2)n1C(C)C
Summary of the method: as §1

[6] = compound: Cn1cc(-c2ccc3nnc(C(F)(F)c4ccc5ncccc5c4)n3n2)cn1
Summary of the method: as §1

tipifarnib = compound: Cn1cncc1[C@@](N)(c1ccc(Cl)cc1)c1ccc2c(c1)c(-c1cccc(Cl)c1)cc(=O)n2C [tipifarnib]
Summary of the method: as §1

mubritinib = compound: FC(F)(F)c1ccc(/C=C/c2nc(COc3ccc(CCCCn4ccnn4)cc3)co2)cc1 [mubritinib]
Summary of the method: as §1

[7] = compound: Cc1cc(SCc2sc(-c3ccc(C(F)(F)F)cc3)nc2C)ccc1OCC(=O)O
Summary of the method: as §1

bafetinib = compound: Cc1ccc(NC(=O)c2ccc(CN3CC[C@H](N(C)C)C3)c(C(F)(F)F)c2)cc1Nc1nccc(-c2cncnc2)n1 [bafetinib]
Summary of the method: as §1

dasatinib = compound: Cc1nc(Nc2ncc(C(=O)Nc3c(C)cccc3Cl)s2)cc(N2CCN(CCO)CC2)n1 [dasatinib]
Summary of the method: as §1

[8] = compound: C[C@H](C1=CC=C(C=C1)C(=O)NC2=C3C=CNC3=NC=C2)N
Summary of the method: as §1

[9] = compound: Cn1cc(-c2ccc3c(c2)CCN3C(=O)Cc2cccc(C(F)(F)F)c2)c2c(N)ncnc21
Summary of the method: as §1

duvelisib = compound: C[C@H](Nc1ncnc2nc[nH]c12)c1cc2cccc(Cl)c2c(=O)n1-c1ccccc1 [duvelisib]
Summary of the method: as §1

Measured: log2 fold change

MRNIP (UniProt Q6NTE8)
inactive: [1] 0.241 | crizotinib 0.1 | [2] -0.034 | gandotinib -0.007 | tozasertib 0.038 | doramapimod 0.05 | ispinesib -0.129 | [3] -0.021 | nilotinib 0.084 | [4] 0.089 | [5] -0.107 | [6] -0.254 | tipifarnib 0.037 | mubritinib 0.17

MON1A (UniProt Q86VX9)
inactive: [1] 0.049 | [2] 0.057 | gandotinib 0.116 | [7] 0.011 | doramapimod 0.045 | ispinesib -0.153 | bafetinib -0.011 | [3] -0.112 | nilotinib -0.163 | [4] -0.056 | dasatinib 0.017 | [5] 0.138 | [6] -0.009 | tipifarnib 0.082 | mubritinib -0.012
active: crizotinib -0.559

MIGA2 (UniProt Q7L4E1)
inactive: [8] 0.373 | [9] -0.074

MKRN3 (UniProt Q13064)
inactive: [1] -0.06 | crizotinib -0.023 | [2] 0.157 | duvelisib -0.01 | tozasertib -0.182 | [7] 0 | doramapimod 0.127 | ispinesib -0.028 | nilotinib 0.007 | [4] 0.017 | dasatinib 0.035 | [5] -0.006 | [6] 0.055 | tipifarnib 0.026

MICAL1 isoform 4 (UniProt Q8TDZ2)
inactive: [1] 0.056 | crizotinib -0.207 | [2] 0.014 | [8] 0.075 | doramapimod 0.212 | ispinesib 0.417 | nilotinib -0.01 | [4] 0.016 | [5] 0.328 | [9] -0.074 | [6] -0.135 | tipifarnib -0.076 | mubritinib 0.036

2 successive records out of the list so far, for reference:
MON1A (UniProt Q86VX9)
inactive: [1] 0.049 | [2] 0.057 | gandotinib 0.116 | [7] 0.011 | doramapimod 0.045 | ispinesib -0.153 | bafetinib -0.011 | [3] -0.112 | nilotinib -0.163 | [4] -0.056 | dasatinib 0.017 | [5] 0.138 | [6] -0.009 | tipifarnib 0.082 | mubritinib -0.012
active: crizotinib -0.559

MIGA2 (UniProt Q7L4E1)
inactive: [8] 0.373 | [9] -0.074

(continued)

MICB, A0A140T979
inactive: crizotinib -0.052 | [2] 0.106 | [8] 0.153 | duvelisib 0.033 | gandotinib -0.043 | tozasertib -0.037 | [7] -0.06 | doramapimod 0.082 | ispinesib -0.103 | bafetinib 0.006 | [3] -0.108 | nilotinib -0.035 | [4] -0.015 | dasatinib -0.034 | [5] -0.022 | [9] -0.001 | [6] -0.08 | tipifarnib 0.099 | mubritinib 0.045

MICA (UniProt Q29983)
inactive: [1] 0 | gandotinib -0.045 | tozasertib -0.127 | ispinesib 0.026 | bafetinib 0.174 | [3] 0.04 | [6] -0.085 | tipifarnib 0.004

MLLT10 (UniProt P55197)
inactive: [2] -0.006 | gandotinib -0.054 | ispinesib 0.276 | bafetinib -0.055 | [3] 0.158 | [6] -0.337 | tipifarnib 0.271 | mubritinib 0.159

MPZL1 isoform 3 (UniProt O95297)
inactive: [8] -0.097 | duvelisib 0.289 | tozasertib -0.043 | [7] 0.08 | dasatinib 0.057 | [9] -0.084

MRFAP1 (UniProt Q9Y605)
inactive: [1] -0.066 | crizotinib -0.142 | [8] -0.048 | gandotinib -0.014 | [7] -0.023 | doramapimod 0.045 | ispinesib 0.016 | bafetinib -0.045 | [3] -0.08 | nilotinib -0.174 | [4] -0.064 | dasatinib -0.054 | [5] 0.051 | [9] -0.024 | [6] 0.011 | tipifarnib -0.261 | mubritinib -0.075

MRPL57 (UniProt Q9BQC6)
inactive: [1] 0.037 | [2] -0.258 | duvelisib -0.183 | gandotinib 0.085 | tozasertib -0.015 | [7] 0.023 | bafetinib 0.256 | [3] 0.071 | nilotinib -0.131 | [4] 0.204 | dasatinib 0.082 | [5] -0.031 | tipifarnib 0.138 | mubritinib 0.013

MICOS10 (UniProt Q5TGZ0)
inactive: [1] 0.085 | crizotinib 0.14 | [2] 0.222 | gandotinib -0.001 | tozasertib 0.112 | doramapimod 0.043 | ispinesib 0.011 | bafetinib -0.055 | [3] 0.061 | nilotinib -0.014 | [4] 0.007 | [5] -0.095 | [6] 0.197 | tipifarnib -0.103 | mubritinib 0.007

MMP15 (UniProt P51511)
inactive: gandotinib 0.033 | [3] 0.121

MOB3A (UniProt Q96BX8)
inactive: [1] -0.176 | crizotinib 0.007 | [8] -0.071 | duvelisib 0.022 | gandotinib -0.08 | tozasertib 0.022 | [7] 0.115 | doramapimod -0.027 | ispinesib -0.027 | bafetinib 0.036 | [3] -0.003 | nilotinib 0.041 | [4] -0.091 | dasatinib -0.303 | [5] 0.032 | [9] 0.023 | [6] -0.145 | tipifarnib -0.137 | mubritinib 0.127

MITF (UniProt O75030)
inactive: [1] 0.026 | crizotinib -0.137 | gandotinib -0.13 | doramapimod 0.006 | [3] 0.001 | nilotinib -0.071 | [4] -0.07 | [5] -0.047 | mubritinib 0.084

MMAA (UniProt Q8IVH4)
inactive: [1] -0.072 | [2] 0.102 | [8] 0.083 | duvelisib -0.048 | [7] -0.143 | dasatinib -0.012 | [9] 0.017 | tipifarnib 0.09

MKRN1 (UniProt Q9UHC7)
inactive: crizotinib 0.063 | [2] -0.198 | [8] 0.074 | gandotinib 0.187 | tozasertib 0.013 | doramapimod 0.015 | ispinesib 0.135 | bafetinib 0.054 | [3] -0.106 | nilotinib 0.017 | [4] -0.048 | [5] 0.027 | [9] -0.145 | [6] -0.074 | tipifarnib 0.114 | mubritinib -0.087
